These are yes or no findings as the source states them, for the method shown. In cells and extracts the contact can be indirect. Some entries that bind do so weakly or less than the wild type.
Target: T1, Zinc-finger of the cerebellum 2 (Zic2) (human (endogenous in DLD-1, SW480, HCT116)), O95409
T1 chain: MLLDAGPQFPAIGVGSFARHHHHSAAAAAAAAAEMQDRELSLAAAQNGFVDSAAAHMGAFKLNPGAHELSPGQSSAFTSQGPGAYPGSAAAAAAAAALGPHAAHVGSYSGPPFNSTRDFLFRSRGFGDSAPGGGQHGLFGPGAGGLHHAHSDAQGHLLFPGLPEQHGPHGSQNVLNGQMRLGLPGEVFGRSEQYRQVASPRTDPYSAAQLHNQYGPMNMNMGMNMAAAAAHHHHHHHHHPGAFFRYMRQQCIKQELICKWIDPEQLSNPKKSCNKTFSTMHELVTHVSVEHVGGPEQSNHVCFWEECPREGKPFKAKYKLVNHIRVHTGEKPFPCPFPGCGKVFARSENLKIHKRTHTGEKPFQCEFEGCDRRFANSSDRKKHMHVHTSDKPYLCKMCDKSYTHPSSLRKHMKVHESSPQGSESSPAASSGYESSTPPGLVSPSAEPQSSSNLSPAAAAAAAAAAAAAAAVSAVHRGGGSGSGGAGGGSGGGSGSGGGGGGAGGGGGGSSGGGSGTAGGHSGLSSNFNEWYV
Test: co-IP; lysates of DLD-1, SW480 and HCT116 cells in Triton X-100 lysis buffer (150 mM NaCl, 0.5% NP-40, Tris-HCl pH 8.0, glycerol) with phosphatase and protease inhibitors; Thermo Scientific Pierce Co-IP kit; detected by western blot
Conditions: remark: other sources report otherwise

B1: β-catenin, P35222 1-781 (protein)
chain: MATQADLMELDMAMEPDRKAAVSHWQQQSYLDSGIHSGATTTAPSLSGKGNPEEEDVDTSQVLYEWEQGFSQSFTQEQVADIDGQYAMTRAQRVRAAMFPETLDEGMQIPSTQFDAAHPTNVQRLAEPSQMLKHAVVNLINYQDDAELATRAIPELTKLLNDEDQVVVNKAAVMVHQLSKKEASRHAIMRSPQMVSAIVRTMQNTNDVETARCTAGTLHNLSHHREGLLAIFKSGGIPALVKMLGSPVDSVLFYAITTLHNLLLHQEGAKMAVRLAGGLQKMVALLNKTNVKFLAITTDCLQILAYGNQESKLIILASGGPQALVNIMRTYTYEKLLWTTSRVLKVLSVCSSNKPAIVEAGGMQALGLHLTDPSQRLVQNCLWTLRNLSDAATKQEGMEGLLGTLVQLLGSDDINVVTCAAGILSNLTCNNYKNKMMVCQVGGIEALVRTVLRAGDREDITEPAICALRHLTSRHQEAEMAQNAVRLHYGLPVVVKLLHPPSHWPLIKATVGLIRNLALCPANHAPLREQGAIPRLVQLLVRAHQDTQRRTSMGGTQQQFVEGVRMEEIVEGCTGALHILARDVHNRIVIRGLNTIPLFVQLLYSPIENIQRVAAGVLCELAQDKEAAEAIEAEGATAPLTELLHSRNEGVATYAAAVLFRMSEDKPQDYKKRLSVELTSSLFRTEPMAWNETADLGLDIGAQGEPLGYRQDDPSYRSFHSGGYGQDALGMDPMMEHEMGGHHPGADYPVDGLPDLGHAQDLMDGLPPGDSNQLAWFDTDL
- binding: binds

From article PMC8184991
